Test results published in PMC9917060.
Numbering of substitutions follows the chain as printed. No constants are given. Whether binding was seen depends on the method and setting. Binding seen in cells or lysates may run through a third protein. Binding can be weak; no strength is given. For some assays here: Sequences can lack the tags named with a protein.

Protein sequences, listed by entry. Tags and fused reporters are not part of them. Lines headed by an entry give the natural chain unless they say otherwise; changes in a name come on top.
UniProt Q7KSS7: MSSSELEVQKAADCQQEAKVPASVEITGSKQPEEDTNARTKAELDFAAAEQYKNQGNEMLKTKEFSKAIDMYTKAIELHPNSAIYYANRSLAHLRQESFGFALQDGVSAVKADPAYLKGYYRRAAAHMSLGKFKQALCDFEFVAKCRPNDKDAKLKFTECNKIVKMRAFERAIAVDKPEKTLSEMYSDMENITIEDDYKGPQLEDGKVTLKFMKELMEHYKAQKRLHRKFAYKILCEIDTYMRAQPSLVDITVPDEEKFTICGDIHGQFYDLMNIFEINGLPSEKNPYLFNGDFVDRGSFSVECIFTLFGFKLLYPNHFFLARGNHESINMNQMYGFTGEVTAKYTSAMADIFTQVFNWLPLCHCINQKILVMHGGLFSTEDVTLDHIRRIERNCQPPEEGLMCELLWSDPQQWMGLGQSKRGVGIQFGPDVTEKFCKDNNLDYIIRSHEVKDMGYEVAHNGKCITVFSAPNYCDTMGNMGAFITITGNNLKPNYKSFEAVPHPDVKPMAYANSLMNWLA

Columns and labels:
[1] = molecular target: GFP-PP5 (wild type Drosophila protein phosphatase 5) (Drosophila melanogaster); experiment: co-IP; GFP-Trap magnetic agarose beads on cleared lysates of transiently co-transfected D.Mel-2 cells in EB buffer, 4 °C, 90 min; blots with anti-GFP and anti-FlagM2
[2] = molecular target: GST-PP5^203−520aa (catalytic domain only) (Drosophila melanogaster); experiment: pull-down; GST-IVTT in vitro binding assay: GST-tagged baits immobilized on glutathione sepharose 4B beads, incubated with 35S-methionine-labelled IVTT products; SDS-PAGE and autoradiography; only the target purified
[3] = molecular target: GST-PP5 (wild type Drosophila PP5) (Drosophila melanogaster) (UniProt Q7KSS7); experiment: as above
[4] = molecular target: GST-PP5^H326N (inactive) (Drosophila melanogaster); experiment: as above
[5] = molecular target: GST-PP5^1−202aa (TPR motifs only) (Drosophila melanogaster); experiment: as above
[6] = molecular target: GST-PP5^E97Q (hyperactive) (Drosophila melanogaster); experiment: as above
[7] = molecular target: CYFP-PP5 (Drosophila melanogaster); experiment: split reporter; BiFC with split YFP in wild type D.Mel-2 cells, fixed and stained with anti-Sas6 or anti-Asl
[8] = molecular target: CYFP-PP5 (Drosophila melanogaster); experiment: split reporter; BiFC with split YFP in D.Mel-2 cells expressing mCherry-Sas6; 0.5 mM CuSO4 for 24 h; live cell imaging

B1: 3×Flag-Plk4-ND (non-degradable Drosophila Polo-like kinase 4) (enzyme, UniProt O97143 1-769)
chain: MLSNRAFGETIEDYEVQHLLGKGGFATVYKARCLHTHQDVAIKMIDKKLIQGTGLTNRVRQEVEIHSRLKHPSVLQLYTFFQDANYVYLVLELAHNGELHRYMNHIARPFTETEAASILKQVVAGLLYLHSHNIMHRDISLSNLLLSREMHVKIADFGLATQLKRPDERHMTMCGTPNYISPEVVSRTSHGLPADVWSVGCMLYTLLVGRPPFETDAVQSTLNKVVMSEYIMPAHLSYEAQDLINKLLKKLPHERITLEAVLCHPFMLKCSNGGHSAPGALNVFSQSMESGDAGIIAFASSDSRNSQQIRSVENSGPQQVLPQIREEFKQVHHKLPYEQTGLFGQASTGLAEPNWPGAAKSSAFCMEAGNVPNSKQASLKEDRISVPPLNTKRLLPTRYKTKNAIMSILRNGEVVLEFLKFRPTYNEDRINDICRISDDGQRIIIYQPDPGRGLPVREQPPDLQIPSGDCVYNYDNLPSKHWKKYIYGARFVGLVKSKTPKVTYFSTLGKCQLMETMTDFEIRFYSGAKLLKTPSEGLKVYDRNGMLLSDYSCSESRSLIEHGNECFTHCVNISNALEVAQTKDNSCFPVTIGRRPITDVQPAQRLDGLRDTTNIAFSTPKSNQGSINFSLSTISSTRNTSDFGTNCSRSNMLAAHQNIPIKRINVPEIGIATELSHGVVQVQFYDGSVVSVIPSMQGGGITYTQPNGTSTHFGKGDDLPFPVRDRVGQIPNIQLKLKTAPLLGSGRKTDYNNAMTPKTTTPYYNRMLL
binding [1]: binds

B2: ^35S-Plk4 (Drosophila Plk4 synthesized by IVTT) (enzyme, UniProt O97143 1-769)
chain: B1 chain with A293S, A297T
modifications: 35S-methionine-labelled
binding [2]: binds | binding [3]: binds | binding [4]: binds weakly | binding [5]: binds weakly | binding [6]: binds

B3: NYFP-Plk4 (enzyme, UniProt O97143 1-769)
chain: B1 chain with A293S, A297T
binding [7]: binds | binding [8]: binds
